Reference: PubChem BioAssay AID504847 (National Center for Advancing Translational Sciences (NCATS), 2011)
Where “and” joins values, the source holds several entries; their conditions need not be identical. Equal entries are not always repeated. Among all 400,000 compounds or so, about 3,700 (0.93%) were called active. The shares of active, inactive and inconclusive entries below differ from those in the screen. Calls come from the whole dose curve; as a rule, active = well fitted inhibition curve with a large enough effect; inconclusive = small, poorly fitted or top-dose-only effect, or another doubt; inactive = no such curve, though single readings can be large or run the other way. A potency beside an inconclusive call is a rough fit, not a confirmed value.

By UniProt entry, the sequences of proteins in these tests, tags left out. Where a name states a change or a piece, a line headed by the entry shows the natural chain unless it says otherwise.
UniProt P11473: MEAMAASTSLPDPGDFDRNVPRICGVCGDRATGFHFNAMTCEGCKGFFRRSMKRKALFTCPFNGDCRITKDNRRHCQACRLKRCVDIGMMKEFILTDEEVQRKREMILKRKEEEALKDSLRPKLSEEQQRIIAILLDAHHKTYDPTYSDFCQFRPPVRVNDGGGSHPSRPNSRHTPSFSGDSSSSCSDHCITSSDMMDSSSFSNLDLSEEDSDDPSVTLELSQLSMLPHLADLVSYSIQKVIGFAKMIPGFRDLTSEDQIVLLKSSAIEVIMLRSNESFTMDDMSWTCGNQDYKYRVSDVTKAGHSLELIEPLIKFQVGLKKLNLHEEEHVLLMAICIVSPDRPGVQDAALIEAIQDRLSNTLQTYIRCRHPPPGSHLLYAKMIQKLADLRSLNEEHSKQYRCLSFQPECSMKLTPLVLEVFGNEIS

Target: Vitamin D3 receptor (Homo sapiens) (UniProt P11473)
Assay: Inhibitors of the vitamin D receptor (VDR): qHTS
Conditions: VDR-SRC2-3 peptide fluorescence polarization, 2 h; max response, negative = inhibition: stronger effect = lower value
Procedure, shortened: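 The screen uses fluorescence polarization to detect compounds that interfere with recruitment of the SRC2-3 coactivator peptide to VDR; plates are read after 2 h at room temperature.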
% is set by controls: 0 for no effect and ±100 for the full control effect; potency is the fitted concentration of half-maximal effect.

Potency, inconclusive:
CC(C)CCNC(=O)C1CCN(S(=O)(=O)c2ccc3nc4c(c(C(=O)O)c3c2)CCCCC4)CC1 70.8 µM [inhibitor, partial curve, poor fit]
CCOC(=O)CSc1nnc([C@@H](NC(=O)OC(C)(C)C)C(C)C)o1 79.4 µM [inhibitor, partial curve, poor fit]
Cc1ccc(NC(=O)c2c(NC(=O)C(F)(F)F)sc3c2CCCCC3)cc1 89.1 µM [inhibitor, single point]
O=C(CCC(=O)c1ccc(Br)cc1)Nc1cccnc1 89.1 µM [inhibitor, single point]
CCOC(=O)Cc1csc(NC(=O)C2CCCN(S(=O)(=O)c3cnc[nH]3)C2)n1 (stereo unspecified) 89.1 µM [inhibitor, partial curve, poor fit]
O=C(NCCCN1CCOCC1)Nc1ccc(Cc2ccc(NC(=O)NCCCN3CCOCC3)cc2)cc1 20 µM [inhibitor, partial curve, poor fit]
Cc1nn(-c2ccccc2)c2c1C(c1ccc([N+](=O)[O-])cc1)C(C#N)=C(N)O2 (stereo unspecified) 89.1 µM [inhibitor, single point]
S=C(c1ccc(-c2ccc(Br)cc2)o1)N1CCOCC1 89.1 µM [inhibitor, single point]
CS(=O)(=O)c1ccc(C(=O)Nc2nc(-c3ccco3)c(-c3ccco3)s2)cc1 89.1 µM [inhibitor, single point]
CCC1CCc2c(sc(N)c2C(N)=O)C1 (stereo unspecified) 89.1 µM [inhibitor, single point]
CCN1C(=O)/C(=c2\sc3nc(=O)c(Cc4ccccc4)nn3c2=O)c2ccccc21 70.8 µM [inhibitor, partial curve, poor fit]
CCN(C(=O)C1CCCN(c2ncnc3c2nc2n3CCCCC2)C1)c1cccc(Cl)c1 (stereo unspecified) 100 µM [inhibitor, single point]
O=C(CSc1nnc(NC(=O)c2ccc(F)cc2F)s1)NC1CC1 2.82 µM [inhibitor, full curve, poor fit]
FC(F)(F)c1ccccc1-c1ccc2ncnc(N3CCOCC3)c2c1 50.1 µM [inhibitor, partial curve]
O=S(=O)(Nc1cccc(Cl)c1)c1ccc2oc(=S)[nH]c2c1 89.1 µM [inhibitor, single point]
COc1cc(CN2CCCC(CO)(Cc3cccc(Cl)c3)C2)cc2c1OCO2 (stereo unspecified) 8.91 µM [inhibitor, full curve, poor fit]
S=c1[nH]cnc2scc(-c3ccc(Cl)cc3)c12 89.1 µM [inhibitor, single point]
CC1(C)O[C@@H]2[C@@H](O1)C(c1ccccc1)(c1ccccc1)OP(=O)(O)OC2(c1ccccc1)c1ccccc1 50.1 µM [inhibitor, partial curve, poor fit]
COc1ccc(C(=O)c2ccccc2)c(O)c1O 79.4 µM [inhibitor, partial curve, poor fit]
CC1CCCCN1C(=O)Cn1cnc2cc([N+](=O)[O-])ccc2c1=O (stereo unspecified) 39.8 µM [inhibitor, single point]
CCOC(=O)c1c(N)sc(C(O)(C(F)(F)F)C(F)(F)F)c1-c1ccccc1 20 µM [inhibitor, single point]
CCOC(=O)c1c(NC(=O)CN2C(=O)NC3(CCC(C)CC3)C2=O)sc(C)c1-c1ccc(C)cc1 (stereo unspecified) 89.1 µM [inhibitor, single point]
CC1=NN(c2ccc(Cl)cc2)C(=O)C1 1.78 µM [inhibitor, partial curve, poor fit]
COC(=O)c1ccc([C@H](NC(=O)c2ccco2)[C@]2(C)C[C@H]2C2CCCCC2)cc1 100 µM [inhibitor, single point]
CC(=O)N1CCN(c2ccc(NCc3ccc(C)cc3)cc2)CC1 2.82 µM [inhibitor, partial curve, poor fit]
CC1=C(C(=O)OC(C)C)C2(O)C(=O)c3ccccc3C2(O)N1 (stereo unspecified) 11.2 µM [inhibitor, full curve, poor fit]
CCCc1[nH]nc2c1C(c1ccc(Br)s1)C(C#N)=C(N)O2 (stereo unspecified) 89.1 µM [inhibitor, single point]
CCN(C(=O)c1ccnn1C)c1ccccc1 100 µM [inhibitor, single point]

Structural class, the compounds so far containing a thiophene ring, fused or not (six)
Potency, inconclusive:
Cc1ccc(NC(=O)c2c(NC(=O)C(F)(F)F)sc3c2CCCCC3)cc1 89.1 µM [inhibitor, single point]
CCC1CCc2c(sc(N)c2C(N)=O)C1 (stereo unspecified) 89.1 µM [inhibitor, single point]
S=c1[nH]cnc2scc(-c3ccc(Cl)cc3)c12 89.1 µM [inhibitor, single point]
CCOC(=O)c1c(N)sc(C(O)(C(F)(F)F)C(F)(F)F)c1-c1ccccc1 20 µM [inhibitor, single point]
CCOC(=O)c1c(NC(=O)CN2C(=O)NC3(CCC(C)CC3)C2=O)sc(C)c1-c1ccc(C)cc1 (stereo unspecified) 89.1 µM [inhibitor, single point]
CCCc1[nH]nc2c1C(c1ccc(Br)s1)C(C#N)=C(N)O2 (stereo unspecified) 89.1 µM [inhibitor, single point]

Next part.

Max response, negative = inhibition, inactive:
COc1cccc(NC(=O)c2ccccc2NS(C)(=O)=O)c1 8.19%
N[C@H](C(=O)O)[C@@H]1[C@@H](C(=O)O)C1(F)F 14.3% and 2.61%
CCOc1ccc(CCNC(=O)CCn2ccc3cc(S(=O)(=O)N4CCCC4)ccc32)cc1 -12.3%
COc1ccccc1-c1nnc2sc(-c3cc4ccccc4o3)nn12 15.6%
O=C(CCc1ccc(S(=O)(=O)N2CCOCC2)cc1)N/N=C/c1ccc(O)c(O)c1O -1.37%
Cc1ccc(C(=O)c2oc3ccccc3c2NC(=O)Cc2ccccc2)cc1 -4.18%
CCCOc1ccc(CNC(=O)CN2C(=O)c3cccnc3Oc3ccc(C)cc32)cc1 9.23%
CC12CCC(C(=O)NNC(=O)c3ccccc3)(OC1=O)C2(C)C (stereo unspecified) 17.2%
COc1ccc(C(=O)CSc2cc(C)[nH]c(=O)n2)cc1 -3.74%
COc1cccc(NC(=S)N2CCN(C(c3ccccc3)c3ccccc3)CC2)c1 8.4%
Cc1c(Cl)cccc1NC(=S)N(CCN(C)C)C(C)c1ccco1 (stereo unspecified) -15.4%
CN(CP(=O)(O)C(O)c1ccccc1)S(C)(=O)=O (stereo unspecified) 1.27%
CC1CCCN(S(=O)(=O)c2ccc(NC(=O)CN3CCCCC3)cc2)C1 (stereo unspecified) -10.9%
